For part of these data: At least one structure is not confirmed: it was looked up by name or label, or the drawing left a doubt. Some results were stated once for a whole list of compounds, not compound by compound.
Tests used:
[1] = tested on: clot formation in normal human platelet poor plasma; experiment: Activated partial thromboplastin time (aPTT) plasma clotting assay; assay type: biochemical; settings: 4 μM
Experimental: The activated partial thromboplastin time (aPTT) and prothrombin time (PT) assays were performed on a model ST4 mechanical coagulometer (Diagnostica Stago, Parsippany, N.J.) as previously described (Bompiani et al, J Thromb Haemost 10:870-80 (2012)). For the aPTT, 50 μL of normal human platelet poor plasma (PPP) was incubated with 50 μL TriniClot aPTT S (Trinity BioTech, Bray, Co Wicklow, Ireland) at 37° C. for 5 min. Aptamer(s) (5 μL) was added, and the mixture was incubated at 37° C. for another 5 min, and CaCl2 (50 μL) was added to initiate the assay. For the PT, 50 μL of normal human PPP was incubated with 5 μL of aptamer(s) at 37° C. for 5 min. TriniClot PT Excel reagent (Trinity BioTech, Bray, Co Wicklow, Ireland) (100 μL) was added to initiate the reaction. Assays with a combination of two aptamers contain an equimolar concentration of each individual aptamer, and the data shown are the total RNA concentration.
To compare the anticoagulant effect of these four aptamers, dose-response titrations were performed in several clinical plasma-based clotting assays. […]

[2] = tested on: clot formation in whole blood; experiment: TEG of whole blood, coagulation triggered by kaolin (Example I); assay type: cell-based; settings: data not shown
Experimental: TEG is a waveform generated from serial measurements of the torque transmitted from a small oscillating cup to the tip of a metal pin inserted into the cup by a 360 microliter sample of blood or plasma added to the cup.
A 360 microliter blood sample has been added to the cup. For 180 minutes after the sample is added, the cup oscillates alternatively clockwise and counterclockwise through an arc of 4° 45′ at a frequency of one oscillation cycle—i. e., one clockwise rotation and one counterclockwise rotation—every 10 seconds. The lower end of the pin is immersed by the sample; the upper end is suspended from a torsion wire. The TEG analyzer records a single measurement of rotation-induced torque after each clockwise rotation and after each counterclockwise rotation of the cup. “The torque of the rotating cup is transmitted to the immersed pin only after fibrin-platelet bonding has linked the cup and [the] pin together. The strength of these fibrin-platelet bonds affects the magnitude of the pin motion, such that strong clots move the pin directly in phase with the cup motion. Thus, the magnitude of the output is directly related to the strength of the formed clot . . . . […] The rotation movement of the pin is converted by a mechanical-electrical transducer to an electrical signal which can be monitored by a computer” (TEG 5000 User Manual, pp 3-4, 1999-2007)). […]

“9.3T: FIXa aptamer, 2'-fluoropyrimidine modified RNA, SEQ ID NO: 1 (AUGGGGACUAUACCGCGUAAUGCUGCCUCCCCAU; 2'-fluoro at CU, RNA at AG, backbone not given here) [Aptamer 9.3T]” was tested, and the FIX activity inhibited [1] was “greater than 99%”.
In the case of “11F7T: FXa aptamer, 2'-fluoropyrimidine modified RNA, SEQ ID NO: 2 (GAGAGCCCCAGCGAGAUAAUACUUGGCCCCGCUCUU; 2'-fluoro at CU, RNA at AG, backbone not given here) [Aptamer 11F7T]”, the FXa activity inhibited [1] is reported as “greater than 99%”.
In the case of `CO[C@H]1O[C@H](COS(=O)(=O)O)[C@@H](O[C@@H]2O[C@@H](C(=O)O)[C@@H](O[C@H]3O[C@H](COS(=O)(=O)O)[C@@H](O[C@@H]4O[C@H](C(=O)O)[C@@H](O[C@H]5O[C@H](COS(=O)(=O)O)[C@@H](O)[C@H](O)[C@H]5NS(=O)(=O)O)[C@H](O)[C@H]4O)[C@H](OS(=O)(=O)O)[C@H]3NS(=O)(=O)O)[C@H](O)[C@H]2OS(=O)(=O)O)[C@H](O)[C@H]1NS(=O)(=O)O` [fondaparinux, reference compound], the “clot formation in TEG assays, single agents (in words)” value [2] is reported as “delay, but do not prevent clot formation”.
